# Measured values from patent US4737494A, “1,3-dithiole derivatives and pharmaceutical compositions” (priority 1984, dated 1988).
# “And” between values parts separate entries of the source, which are not always exact repeats. Equal entries are not always repeated. The name of at least one read-out is uncertain.
# Test system: acute liver injury induced by carbon tetrachloride
# Assay: Protective effect on acute liver injury induced by carbon tetrachloride (mice, oral): plasma GPT activity and BSP retention
# Assay type: in vivo, mice (ddY, male)
# Details: 6 h before CCl4 (0.05 ml/kg p.o.); for Retained BSP: plasma 30 min after BSP 75 mg/kg i.v.
# Description: 1. Protective Effect on Acute Liver Injury Induced by Carbon Tetrachloride
# A test compound was dissolved or suspended in olive oil and administered orally to mice (ddY mice, .male., 23±2 g, n=5). After 6 hours, carbon tetrachloride (0.05 ml/kg) was administered orally. 24 Hours after the administration of carbon tetrachloride, BSP (sodium sulfobromophthalein; 75 mg/kg) was administered intravenously. Thirty minutes later, the cardiac blood was collected, and GPT (glutamic-pyruvic transaminase) activity and the retention rate of BSP in the plasma were measured.
smiles,measurement,setting,value
"CC(C)OC(=O)C(C(=O)OC(C)C)=C1SC=CS1 [Malotilate, reference compound]",Retained BSP,10 mg/kg,79.4 ± 21.4 µg/mL and 76.2 ± 20.7 µg/mL and 87.4 ± 21.8 µg/mL
same,GPT activity,"10 mg/kg, plasma, 10 mg/kg",3480 ± 608 Karmen units and 2356 ± 702 Karmen units and 2941 ± 501 Karmen units
same,Retained BSP,50 mg/kg,18.4 ± 2.0 µg/mL and 16.1 ± 2.0 µg/mL and 17.4 ± 2.0 µg/mL
